Where a name gives a salt, the structure may show the parent alone. Some of the results follow. Hit calls seldom repeat between salt and free forms of one compound.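 Kinases, fused to nanoluciferase, were expressed in K562 cells; luminescence was measured every 4 h from 2 to 18 h as percent of control (DMSO = 100%, positive control = 0%). A time point is decreased if signal falls significantly (2 sigma). Hits were called by the authors by a rule that is not shown; the count of time points alone does not decide it.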
Target: PIK4CB (UniProt Q9UBF8)
Assay: kinase-Nluc reporter destabilization hit call (1 = scored as downregulated) (binary); higher = compound decreases kinase abundance
Conditions: 10 µM; K562; 2-18 h

Chains of the proteins cited; added tags and fusions are not shown. Lines headed by an entry give the natural chain unless they say otherwise; changes in a name come on top.
UniProt Q9UBF8: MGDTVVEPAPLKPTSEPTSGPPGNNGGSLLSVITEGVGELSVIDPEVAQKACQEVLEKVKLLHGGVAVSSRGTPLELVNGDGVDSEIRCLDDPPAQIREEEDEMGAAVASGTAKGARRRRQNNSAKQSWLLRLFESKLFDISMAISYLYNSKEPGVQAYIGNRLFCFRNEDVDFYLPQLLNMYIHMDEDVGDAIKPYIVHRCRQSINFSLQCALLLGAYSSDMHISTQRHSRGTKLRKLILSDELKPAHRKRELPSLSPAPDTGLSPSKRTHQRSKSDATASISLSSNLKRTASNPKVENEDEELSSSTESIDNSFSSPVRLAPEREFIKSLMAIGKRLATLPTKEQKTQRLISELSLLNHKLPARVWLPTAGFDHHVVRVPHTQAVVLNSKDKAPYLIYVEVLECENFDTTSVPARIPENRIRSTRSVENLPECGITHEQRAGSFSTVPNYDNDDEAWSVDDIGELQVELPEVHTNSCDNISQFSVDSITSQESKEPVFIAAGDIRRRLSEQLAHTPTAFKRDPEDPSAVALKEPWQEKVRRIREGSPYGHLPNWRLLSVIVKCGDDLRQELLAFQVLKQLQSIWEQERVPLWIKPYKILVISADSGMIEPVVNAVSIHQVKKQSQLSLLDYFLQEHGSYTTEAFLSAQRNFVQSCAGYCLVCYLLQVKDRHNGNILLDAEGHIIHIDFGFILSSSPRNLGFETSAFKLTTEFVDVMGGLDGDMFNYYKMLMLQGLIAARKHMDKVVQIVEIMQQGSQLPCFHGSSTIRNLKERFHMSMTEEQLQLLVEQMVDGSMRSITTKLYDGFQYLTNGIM

kinase-Nluc reporter destabilization hit call, inactive:
COc1cc2nccc(Oc3ccc(NC(=O)C4(C(=O)Nc5ccc(F)cc5)CC4)cc3)c2cc1OC [Cabozantinib (S-malate)] 0
Cn1cc(-c2cnc3ccc4ccc(CS(=O)(=O)NCc5ccccn5)cc4c(=O)c3c2)cn1 [MK-8033 (hydrochloride)] 0
CNC(=O)c1ccc(Nc2ncc(C(F)(F)F)c(NCc3nccnc3N(C)S(C)(=O)=O)n2)cc1 [Defactinib] 0
N#CCNC(=O)c1ccc(-c2ccnc(Nc3ccc(N4CCOCC4)cc3)n2)cc1 [Momelotinib] 0
CC(=O)c1c(C)c2cnc(Nc3ccc(N4CCNCC4)cn3)nc2n(C2CCCC2)c1=O [Palbociclib (isethionate)] 0
Nc1cncc(-c2cn3ccnc3c(Nc3ccc(N4CCN(C5COC5)CC4)cc3)n2)n1 [Lanraplenib (succinate)] 0
C#Cc1cccc(Nc2ncnc3cc4c(cc23)OCCOCCOCCO4)c1 [Icotinib] 0
O=C(O)c1ccc2c(c1)nc(Nc1cccc(Cl)c1)c1ccncc12 [Silmitasertib (sodium salt)] 0
CC(C)Nc1cc(-c2c[nH]c(C(=O)N[C@H](CO)c3cccc(Cl)c3)c2)c(Cl)cn1 [Ulixertinib (hydrochloride)] 0
C=CC(=O)N1CCN(c2ncnc3c(F)c(-c4c(O)cccc4F)c(Cl)cc23)CC1 0
CN(C)C(=O)c1cc2cnc(Nc3ccc(N4CCNCC4)cn3)nc2n1C1CCCC1 [Ribociclib] 0
COc1cc2c(-c3cnn4cc(N5CCC(N6CCN(C)CC6)CC5)cnc34)ccnc2cc1F [ALK2-IN-4 (succinate)] 0
CCN(CC)Cc1ccc(OC)c(-c2cc3c(-c4ccc(C(=O)O)c(C(C)C)c4)ccnc3[nH]2)c1 0
O=C(c1nn(-c2ccc(CN3CCOCC3)cc2)c2c1CS(=O)(=O)c1c(F)cccc1-2)N1CCOCC1 0
CC(C)(C)n1nc(-c2cccc3ccccc23)c2c(N)ncnc21 [1-Naphthyl PP1 (hydrochloride)] 0
CCN(CC)CC(=O)Nc1c(C)cccc1C [Lidocaine (hydrochloride)] 0
Cn1ncc(Cl)c1-c1cc(C(=O)N[C@H](CN)Cc2cccc(F)c2)sc1Cl [Afuresertib (hydrochloride)] 0
COc1cc2c(cc1OC)-c1c(C)c3ccc(OC)c(OC)c3c[n+]1CC2 [Dehydrocorydaline] 0
C[C@H](CCC(=O)NCCS(=O)(=O)O)[C@H]1CC[C@H]2[C@@H]3[C@@H](O)C[C@@H]4C[C@H](O)CC[C@]4(C)[C@H]3CC[C@]12C [Tauroursodeoxycholate (dihydrate)] 0
OCCn1cc(-c2cnc3nnn(Cc4ccc5ncccc5c4)c3n2)cn1 0
C[S+]([O-])c1ccc(-c2nc(-c3ccc(F)cc3)c(-c3ccncc3)[nH]2)cc1 (configuration not stated) 0
CC(C)(C)n1nc(-c2cccc3ccccc23)c2c(N)ncnc21 [1-Naphthyl PP1] 0

A portion from further up:
kinase-Nluc reporter destabilization hit call, inactive:
Cn1cc(-c2cnc3ccc4ccc(CS(=O)(=O)NCc5ccccn5)cc4c(=O)c3c2)cn1 [MK-8033 (hydrochloride)] 0
CNC(=O)c1ccc(Nc2ncc(C(F)(F)F)c(NCc3nccnc3N(C)S(C)(=O)=O)n2)cc1 [Defactinib] 0
N#CCNC(=O)c1ccc(-c2ccnc(Nc3ccc(N4CCOCC4)cc3)n2)cc1 [Momelotinib] 0
CC(=O)c1c(C)c2cnc(Nc3ccc(N4CCNCC4)cn3)nc2n(C2CCCC2)c1=O [Palbociclib (isethionate)] 0
Nc1cncc(-c2cn3ccnc3c(Nc3ccc(N4CCN(C5COC5)CC4)cc3)n2)n1 [Lanraplenib (succinate)] 0
C#Cc1cccc(Nc2ncnc3cc4c(cc23)OCCOCCOCCO4)c1 [Icotinib] 0

— the supplement of paper PMC12823440, “Inhibitors supercharge kinase turnover through native proteolytic circuits” (Nature, 2025)
